{
  "source": "patent US10053721B2",
  "about": "“Antimicrobial resistance status determination device and method” (bioMerieux, Inc., priority 2015, dated 2018)",
  "key": {"[1]": {"tested_on": "K. pneumoniae strains", "experiment": "Preliminary imipenem titration, optical density growth curves (CRE assay)", "format": "cell-based"}, "[2]": {"tested_on": "K. pneumoniae or E. coli isolates", "experiment": "Carbapenem-resistant Enterobacteriaceae (CRE) assay, optical density at 660 nm over time", "format": "cell-based", "conditions": "4 ug/mL imipenem", "procedure": "BacT/ALERT® SA bottles were inoculated with 10 mL of SPS-anticoagulated normal human blood and seeded with <100 CFU of S. aureus, E. faecalis, E. faecium, E. coli and K. pneumoniae isolates. Within 15 minutes of flagging positive, the bottles were manually unloaded and either tested immediately or kept on ice until tested. If chilled, a positive bottle was warmed in a 36° C. water bath for 15-20 minutes before removing samples. The positive broth dilutions were performed manually. […]\nEach strain was sub-cultured without the drug as a growth control. The resistance assay tubes (15 mL tubes fitted with septum screw-caps for diluting and sampling) were incubated in a custom-built, heated, rocking optical density unit, placed within a resistance module, and time-dependent changes in the optical at 660 nm of each culture tube were measured every 45 seconds for periods of up to 12 hours. To maximize microbial growth and minimize measurement noise, tubes were rocked between +/−18 degrees from horizontal at 36 cycles/min for 30 seconds, then returned to the upright position for 15 seconds before an optical density reading was taken. […]"}},
  "note": "At least one compound was matched to its structure with a doubt left.",
  "data": [
    {"compound": "C[C@@H](O)[C@H]1C(=O)N2C(C(=O)O)=C(SCCN=CN)C[C@H]12", "note": "[imipenem]", "values": [
      {"measurement": "growth curve (optical density over time)", "setting": "[1]; carbapenem-resistant K. pneumoniae strain (kpc), FIG. 6C", "value": "not dependent upon the concentration of antimicrobial"},
      {"measurement": "growth curve (optical density over time)", "setting": "[1]; carbapenem-sensitive K. pneumoniae strain producing ESBLs, increasing concentrations of antimicrobial, FIG. 6B", "value": "decreased growth"},
      {"measurement": "growth curve (optical density over time)", "setting": "[1]; resistant K. pneumoniae strain (vim 1), FIG. 6D", "value": "not dependent upon the concentration of antimicrobial"},
      {"measurement": "growth curve (optical density over time)", "setting": "[1]; sensitive K. pneumoniae strain KP 108902-S, imipenem 2, 4 and 8 μg/ml vs no antimicrobial, FIG. 6A", "value": "decrease in microorganism growth"},
      {"measurement": "growth in the presence of imipenem", "setting": "[2]; 8 strains harboring carbapenemase genes (six K. pneumoniae, two E. coli)", "value": "grew vigorously"},
      {"measurement": "growth in the presence of imipenem", "setting": "[2]; 12 imipenem sensitive strains incl. 6 producing ESBLs, 12-hr culture period", "value": "none of the 12 imipenem sensitive strains, including 6 producing ESBLs, grew"}
    ]}
  ]
}
